Measured values: PMC4538849

Chains of the proteins cited; added tags and fusions are not shown.
UniProt Q8IXI1: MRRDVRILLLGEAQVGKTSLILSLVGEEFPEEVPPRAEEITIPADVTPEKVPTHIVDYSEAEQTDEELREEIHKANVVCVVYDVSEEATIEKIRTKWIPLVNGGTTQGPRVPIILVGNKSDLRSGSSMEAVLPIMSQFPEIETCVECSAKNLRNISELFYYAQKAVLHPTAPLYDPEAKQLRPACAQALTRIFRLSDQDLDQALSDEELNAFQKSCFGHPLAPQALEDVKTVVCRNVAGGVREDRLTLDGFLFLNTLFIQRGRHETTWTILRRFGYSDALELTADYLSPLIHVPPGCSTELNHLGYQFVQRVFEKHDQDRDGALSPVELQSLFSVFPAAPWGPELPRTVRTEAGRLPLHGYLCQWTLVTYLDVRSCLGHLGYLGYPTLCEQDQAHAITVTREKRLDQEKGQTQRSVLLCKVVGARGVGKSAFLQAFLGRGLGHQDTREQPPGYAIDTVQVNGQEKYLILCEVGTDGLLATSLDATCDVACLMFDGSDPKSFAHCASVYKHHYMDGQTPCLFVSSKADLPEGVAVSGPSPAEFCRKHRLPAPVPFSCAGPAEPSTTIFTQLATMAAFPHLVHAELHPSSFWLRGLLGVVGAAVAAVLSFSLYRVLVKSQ
UniProt Q8IXI2: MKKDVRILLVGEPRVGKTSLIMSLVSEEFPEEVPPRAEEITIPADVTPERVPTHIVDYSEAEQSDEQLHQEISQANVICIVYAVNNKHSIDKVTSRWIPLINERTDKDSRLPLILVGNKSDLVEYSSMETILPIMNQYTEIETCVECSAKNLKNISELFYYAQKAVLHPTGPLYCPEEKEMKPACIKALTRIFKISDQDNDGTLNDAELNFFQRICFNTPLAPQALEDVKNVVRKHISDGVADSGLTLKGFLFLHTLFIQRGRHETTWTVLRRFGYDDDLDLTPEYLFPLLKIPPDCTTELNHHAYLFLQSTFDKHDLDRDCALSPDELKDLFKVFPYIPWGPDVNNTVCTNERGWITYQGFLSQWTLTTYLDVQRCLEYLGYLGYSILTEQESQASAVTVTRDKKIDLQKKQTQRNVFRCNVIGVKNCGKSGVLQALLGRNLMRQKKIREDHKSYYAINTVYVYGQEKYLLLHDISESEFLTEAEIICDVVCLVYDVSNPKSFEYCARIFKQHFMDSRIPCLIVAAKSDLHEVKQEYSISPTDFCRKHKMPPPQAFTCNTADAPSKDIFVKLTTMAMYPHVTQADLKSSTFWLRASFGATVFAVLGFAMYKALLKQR
UniProt P49454: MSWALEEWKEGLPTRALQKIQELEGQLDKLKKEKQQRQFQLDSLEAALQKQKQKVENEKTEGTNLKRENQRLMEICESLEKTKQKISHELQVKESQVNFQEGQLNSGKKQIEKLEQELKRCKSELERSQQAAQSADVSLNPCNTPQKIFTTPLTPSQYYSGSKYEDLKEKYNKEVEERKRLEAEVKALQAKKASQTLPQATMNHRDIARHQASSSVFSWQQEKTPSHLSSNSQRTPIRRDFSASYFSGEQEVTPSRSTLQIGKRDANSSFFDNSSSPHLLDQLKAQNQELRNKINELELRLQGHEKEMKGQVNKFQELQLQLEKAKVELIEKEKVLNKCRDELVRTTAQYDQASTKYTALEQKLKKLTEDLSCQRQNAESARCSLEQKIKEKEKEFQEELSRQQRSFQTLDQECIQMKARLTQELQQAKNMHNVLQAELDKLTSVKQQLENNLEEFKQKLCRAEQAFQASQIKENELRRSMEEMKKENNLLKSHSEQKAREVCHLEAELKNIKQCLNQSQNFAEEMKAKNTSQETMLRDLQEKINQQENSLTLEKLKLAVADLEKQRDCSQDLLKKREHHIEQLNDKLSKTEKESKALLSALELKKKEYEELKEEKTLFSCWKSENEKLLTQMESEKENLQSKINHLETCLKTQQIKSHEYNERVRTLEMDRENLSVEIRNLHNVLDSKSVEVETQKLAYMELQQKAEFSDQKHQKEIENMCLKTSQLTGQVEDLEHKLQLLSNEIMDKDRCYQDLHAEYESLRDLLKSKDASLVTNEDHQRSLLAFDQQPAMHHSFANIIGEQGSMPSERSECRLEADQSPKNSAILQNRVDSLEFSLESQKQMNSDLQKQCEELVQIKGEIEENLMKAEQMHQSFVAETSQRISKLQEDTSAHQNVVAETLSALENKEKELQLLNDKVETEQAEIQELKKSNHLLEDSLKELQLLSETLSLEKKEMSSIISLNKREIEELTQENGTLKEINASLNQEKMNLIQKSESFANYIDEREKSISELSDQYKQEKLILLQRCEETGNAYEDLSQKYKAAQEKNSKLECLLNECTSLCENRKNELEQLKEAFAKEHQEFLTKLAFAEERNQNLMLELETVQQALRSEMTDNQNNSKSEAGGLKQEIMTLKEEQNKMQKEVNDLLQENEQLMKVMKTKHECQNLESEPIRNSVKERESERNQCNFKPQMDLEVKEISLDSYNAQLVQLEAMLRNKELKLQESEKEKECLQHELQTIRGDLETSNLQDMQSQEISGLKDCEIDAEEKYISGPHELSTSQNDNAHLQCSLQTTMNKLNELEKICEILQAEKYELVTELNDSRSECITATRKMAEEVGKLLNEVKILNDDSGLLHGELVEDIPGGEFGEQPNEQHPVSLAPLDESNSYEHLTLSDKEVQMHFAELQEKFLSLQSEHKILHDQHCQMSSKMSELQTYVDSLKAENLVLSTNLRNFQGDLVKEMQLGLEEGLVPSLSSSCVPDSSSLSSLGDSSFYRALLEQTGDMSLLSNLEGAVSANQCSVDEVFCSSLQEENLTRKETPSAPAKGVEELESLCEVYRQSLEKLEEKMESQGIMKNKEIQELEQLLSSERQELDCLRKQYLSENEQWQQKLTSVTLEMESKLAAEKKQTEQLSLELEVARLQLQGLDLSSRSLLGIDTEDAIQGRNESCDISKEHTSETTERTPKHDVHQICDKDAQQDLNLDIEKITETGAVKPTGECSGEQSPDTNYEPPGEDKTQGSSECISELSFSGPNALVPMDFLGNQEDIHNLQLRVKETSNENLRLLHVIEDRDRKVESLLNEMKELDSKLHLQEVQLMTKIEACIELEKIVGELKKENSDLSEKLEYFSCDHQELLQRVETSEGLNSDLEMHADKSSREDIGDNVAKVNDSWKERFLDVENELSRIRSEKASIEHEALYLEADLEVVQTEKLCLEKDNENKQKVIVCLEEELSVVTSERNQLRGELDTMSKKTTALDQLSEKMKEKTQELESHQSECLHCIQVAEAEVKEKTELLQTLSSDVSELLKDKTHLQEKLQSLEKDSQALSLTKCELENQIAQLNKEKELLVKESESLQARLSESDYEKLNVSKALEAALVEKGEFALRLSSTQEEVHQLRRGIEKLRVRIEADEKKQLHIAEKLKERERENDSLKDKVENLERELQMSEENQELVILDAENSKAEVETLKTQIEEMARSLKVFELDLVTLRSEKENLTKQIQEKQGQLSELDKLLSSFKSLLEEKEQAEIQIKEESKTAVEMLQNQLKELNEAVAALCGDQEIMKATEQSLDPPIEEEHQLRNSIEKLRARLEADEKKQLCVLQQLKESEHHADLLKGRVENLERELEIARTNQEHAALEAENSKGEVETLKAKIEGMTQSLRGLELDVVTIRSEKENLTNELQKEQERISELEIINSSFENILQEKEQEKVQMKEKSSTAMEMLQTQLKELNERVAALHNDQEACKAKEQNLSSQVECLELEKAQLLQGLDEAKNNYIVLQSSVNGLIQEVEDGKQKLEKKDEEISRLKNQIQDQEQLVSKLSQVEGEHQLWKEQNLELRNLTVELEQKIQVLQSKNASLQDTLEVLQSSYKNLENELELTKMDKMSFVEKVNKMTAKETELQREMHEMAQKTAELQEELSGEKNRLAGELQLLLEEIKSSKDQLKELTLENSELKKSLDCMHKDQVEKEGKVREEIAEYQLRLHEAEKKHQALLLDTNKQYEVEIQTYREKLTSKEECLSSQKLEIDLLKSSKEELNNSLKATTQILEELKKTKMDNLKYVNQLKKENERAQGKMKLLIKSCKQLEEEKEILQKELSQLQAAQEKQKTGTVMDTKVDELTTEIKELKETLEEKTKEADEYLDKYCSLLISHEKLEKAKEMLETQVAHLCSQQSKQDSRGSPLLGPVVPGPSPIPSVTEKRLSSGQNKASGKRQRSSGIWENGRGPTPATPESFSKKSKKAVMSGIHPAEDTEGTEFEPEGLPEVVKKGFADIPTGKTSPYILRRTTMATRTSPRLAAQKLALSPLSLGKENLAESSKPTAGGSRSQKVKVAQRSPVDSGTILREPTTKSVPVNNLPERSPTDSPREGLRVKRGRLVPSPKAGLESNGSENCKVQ

Key:
[1] = molecular target: 3 × Flag-6 × HIS-Miro2 (human) (UniProt Q8IXI1); experiment: affinity purification with mass spectrometry; 3xFlag-6His-Miro1 or -Miro2 from doxycycline-induced T-Rex-293 whole-cell extracts (2% Triton) on M2-Flag magnetic beads, washed with 0.2% digitonin buffer, eluted with 3xFlag peptide, LC-MS/MS
[2] = molecular target: 3 × Flag-6 × HIS-Miro1 (human) (UniProt Q8IXI2); experiment: affinity purification with mass spectrometry; SILAC: unlabelled cells expressing 3xFlag-6His-Miro1 mixed in equal amounts with heavy Arg10/Lys8-labelled control HEK293 T-Rex cells before lysis; Flag purification; light to heavy ratio of peptides

binding [1]	binding [2]	Substance
binds		Miro1 (from UniProt Q8IXI2 1-618)
	binds	centromeric protein F (Cenp-F) (from UniProt P49454 1-3114)

No constants are given. Whether binding was seen depends on the method and setting. In cells and extracts the contact can be indirect. A yes stands for co-enrichment or nearness to the bait. Other partners may have been found.
